Test results published in publication doi:10.1101/2024.10.01.615909 (bioRxiv, 2024).
These are yes or no findings as the source states them, for the method shown. Binding calls can cover weak binding; strength is not graded here. Where a sequence is shown, tags or fusion partners need not be part of it.

What was measured:
[1] = molecular target: IQD2_(ΔNterm) fused to the Gal4 DNA-binding domain (Arabidopsis thaliana); test: two-hybrid
[2] = molecular target: IQD2_(C-half) fused to the Gal4 DNA-binding domain (Arabidopsis thaliana); test: two-hybrid

B1: KLCR1 fused to the Gal4 activation domain (protein, UniProt O81629 1-609)
chain: MPAMPGLVSVKTPSDTPPLRVAVPDTQPLSNPPRTPMKKTPSSTPSRSKPSPNRSTGKKDSPTVSSSTAAVIDVDDPSLDNPDLGPFLLKLARDAIASGEGPNKALDYAIRATKSFERCCAAVAPPIPGGSDGGPVLDLAMSLHVLAAIYCSLGRFDEAVPPLERAIQVPDPTRGPDHSLAAFSGHMQLGDTLSMLGQIDRSIACYEEGLKIQIQTLGDTDPRVGETCRYLAEAYVQAMQFNKAEELCKKTLEIHRAHSEPASLEEAADRRLMAIICEAKGDYENALEHLVLASMAMIASGQESEVASIDVSIGNIYMSLCRFDEAVFSYQKALTVFKASKGETHPTVASVFVRLAELYHRTGKLRESKSYCENALRIYNKPVPGTTVEEIAGGLTEISAIYESVDEPEEALKLLQKSMKLLEDKPGQQSAIAGLEARMGVMYYTVGRYEDARNAFESAVTKLRAAGEKSAFFGVVLNQMGLACVQLFKIDEAGELFEEARGILEQERGPCDQDTLGVYSNLAATYDAMGRIEDAIEILEQVLKLREEKLGTANPDFEDEKKRLAELLKEAGRSRNYKAKSLQNLIDPNARPPKKESSAKKWPSLGFKF
binding [1]: binds
binding [2]: binds
